Measured values as given in patent US20240010720A1.
These are yes or no findings as the source states them, for the method shown. Some results given as binding are weak or reduced against the parent protein; the word gives no strength. Tags and fused reporters may be left off the sequences shown.

Biological target: A-006 (IgG1 format)
Test: competition flow cytometry: assay supernatants with A-006-like ABP (20 ug/ml) and titrated soluble IGSF11-ECD-His stained on fresh MDA-MB-231-luc/IGSF11 cells; blocked: ABP binding to IGSF11 on the cells

B1: His-tagged extracellular domain (ECD) of human IGSF11 (VSIG3) (receptor, not shown: small tags and cut ends)
chain: LEVSESPGSIQVARGQPAVLPCTFTTSAALINLNVIWMVTPLSNANQPEQVILYQGGQMFDGAPRFHGRVGFTGTMPATNVSIFINNTQLSDTGTYQCLVNNLPDIGGRNIGVTGLTVLVPPSAPHCQIQGSQDIGSDVILLCSSEEGIPRPTYLWEKLDNTLKLPPTATQDQVQGTVTIRNISALSSGLYQCVASNAIGTSTCLLDLQVISPQPRNIG
For B1, which binding is on record?
The binding was “binds”.
